# Laboratory results from the supplement of paper PMC8728848.
# This is one part of the list.
# Tests used:
# Assay in all cases: glycan array binding signal (z-score within array); higher = stronger binding
# Settings in all cases: glycan notation: IUPAC condensed, linker removed
# [1] = biological target: Neu5Ac(a2-3)Gal(b1-3)GlcNAc(b1-2)Man(a1-3)[Neu5Ac(a2-3)Gal(b1-3)GlcNAc(b1-2)Man(a1-6)]Man(b1-4)GlcNAc(b1-4)GlcNAc
# Method in brief: (§1)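 The binding signal is a Z-score computed within each array. Data were drawn from 3228 arrays in the Consortium for Functional Glycomics database, restricted to those with a known protein sequence. Scores were averaged over arrays of the same protein sequence at different concentrations or buffers, and over linkers, and negative values can be taken as non-binding.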
# [2] = biological target: Neu5Ac(a2-3)Gal(b1-3)GlcNAc(b1-2)[Neu5Ac(a2-3)Gal(b1-3)GlcNAc(b1-4)]Man(a1-6)[Neu5Ac(a2-3)Gal(b1-3)GlcNAc(b1-2)Man(a1-3)]Man(b1-4)GlcNAc(b1-4)GlcNAc
# Method in brief: as §1
# [3] = biological target: Neu5Ac(a2-3)Gal(b1-3)GlcNAc(b1-3)Gal(b1-3)GlcNAc
# Method in brief: as §1
# [4] = biological target: Neu5Ac(a2-3)Gal(b1-3)GlcNAc(b1-3)Gal(b1-4)GlcNAc
# Method in brief: as §1
# [5] = biological target: Neu5Ac(a2-3)Gal(b1-3)GlcNAc(b1-3)GalNAc
# Method in brief: as §1
# [6] = biological target: Neu5Ac(a2-3)Gal(b1-3)GlcNAc(b1-4)Gal(b1-4)Glc
# Method in brief: as §1
# [7] = biological target: Neu5Ac(a2-3)Gal(b1-3)GlcNAc(b1-6)GalNAc
# Method in brief: as §1
# [8] = biological target: Neu5Ac(a2-3)Gal(b1-3)GlcNAc6S
# Method in brief: as §1
# [9] = biological target: Neu5Ac(a2-3)Gal(b1-3)[Fuc(a1-4)]GlcNAc
# Method in brief: as §1
# [10] = biological target: Neu5Ac(a2-3)Gal(b1-3)[Fuc(a1-4)]GlcNAc(b1-3)Gal(b1-3)[Fuc(a1-4)]GlcNAc
# Method in brief: as §1
# [11] = biological target: Neu5Ac(a2-3)Gal(b1-3)[Fuc(a1-4)]GlcNAc(b1-3)Gal(b1-4)[Fuc(a1-3)]GlcNAc
# Method in brief: as §1
# [12] = biological target: Neu5Ac(a2-3)Gal(b1-3)[GlcNAc(b1-6)]GalNAc
# Method in brief: as §1
# [13] = biological target: Neu5Ac(a2-3)Gal(b1-3)[Neu5Ac(a2-3)Gal(b1-4)]GlcNAc
# Method in brief: as §1
# [14] = biological target: Neu5Ac(a2-3)Gal(b1-3)[Neu5Ac(a2-6)]GalNAc
# Method in brief: as §1
# [15] = biological target: Neu5Ac(a2-3)Gal(b1-3)[Neu5Ac(a2-6)]GlcNAc(b1-3)[Fuc(a1-3)[Gal(b1-4)]GlcNAc(b1-6)]Gal(b1-4)Glc
# Method in brief: as §1
# [16] = biological target: Neu5Ac(a2-3)Gal(b1-3)]Neu5Ac(a2-3)Gal(b1-4)]GlcNAc
# Method in brief: as §1
# Neu5Ac(a2-3)Gal(b1-4)Glc = biological target: Neu5Ac(a2-3)Gal(b1-4)Glc
# Method in brief: as §1
# [17] = biological target: Neu5Ac(a2-3)Gal(b1-4)GlcNAc
# Method in brief: as §1
# [18] = biological target: Neu5Ac(a2-3)Gal(b1-4)GlcNAc(b1-2)Man
# Method in brief: as §1
# [19] = biological target: Neu5Ac(a2-3)Gal(b1-4)GlcNAc(b1-2)Man(a1-3)[GlcNAc(b1-2)Man(b1-4)GlcNAc(b1-2)Man(a1-6)]Man(b1-4)GlcNAc(b1-4)GlcNAc
# Method in brief: as §1
# [20] = biological target: Neu5Ac(a2-3)Gal(b1-4)GlcNAc(b1-2)Man(a1-3)[GlcNAc(b1-4)][Neu5Ac(a2-3)Gal(b1-4)GlcNAc(b1-2)Man(a1-6)]Man(b1-4)GlcNAc(b1-4)GlcNAc
# Method in brief: as §1
# [21] = biological target: Neu5Ac(a2-3)Gal(b1-4)GlcNAc(b1-2)Man(a1-3)[Neu5Ac(a2-3)Gal(b1-4)GlcNAc(b1-2)Man(a1-6)]Man(b1-4)GlcNAc(b1-4)GlcNAc
# Method in brief: as §1
# [22] = biological target: Neu5Ac(a2-3)Gal(b1-4)GlcNAc(b1-2)Man(a1-3)[Neu5Ac(a2-3)Gal(b1-4)GlcNAc(b1-2)Man(a1-6)]Man(b1-4)GlcNAc(b1-4)[Fuc(a1-6)]GlcNAc
# Method in brief: as §1
# [23] = biological target: Neu5Ac(a2-3)Gal(b1-4)GlcNAc(b1-2)Man(a1-3)[Neu5Ac(a2-6)Gal(b1-4)GlcNAc(b1-2)Man(a1-6)]Man(b1-4)GlcNAc(b1-4)GlcNAc
# Method in brief: as §1
# [24] = biological target: Neu5Ac(a2-3)Gal(b1-4)GlcNAc(b1-2)[Neu5Ac(a2-3)Gal(b1-4)GlcNAc(b1-4)]Man(a1-3)[GlcNAc(b1-4)][Neu5Ac(a2-3)Gal(b1-4)GlcNAc(b1-2)[Neu5Ac(a2-3)Gal(b1-4)GlcNAc(b1-6)]Man(a1-6)]Man(b1-4)GlcNAc(b1-4)GlcNAc
# Method in brief: as §1
# [25] = biological target: Neu5Ac(a2-3)Gal(b1-4)GlcNAc(b1-2)[Neu5Ac(a2-3)Gal(b1-4)GlcNAc(b1-4)]Man(a1-3)[GlcNAc(b1-4)][Neu5Ac(a2-3)Gal(b1-4)GlcNAc(b1-4)Man(a1-6)]Man(b1-4)GlcNAc(b1-4)GlcNAc
# Method in brief: as §1
# [26] = biological target: Neu5Ac(a2-3)Gal(b1-4)GlcNAc(b1-2)[Neu5Ac(a2-3)Gal(b1-4)GlcNAc(b1-6)]Man(a1-6)[Neu5Ac(a2-3)Gal(b1-4)GlcNAc(b1-2)Man(a1-3)][GlcNAc(b1-4)]Man(b1-4)GlcNAc(b1-4)GlcNAc
# Method in brief: as §1
# [27] = biological target: Neu5Ac(a2-3)Gal(b1-4)GlcNAc(b1-3)Gal
# Method in brief: as §1
# [28] = biological target: Neu5Ac(a2-3)Gal(b1-4)GlcNAc(b1-3)Gal(b1-3)GlcNAc
# Method in brief: as §1
# [29] = biological target: Neu5Ac(a2-3)Gal(b1-4)GlcNAc(b1-3)Gal(b1-4)GlcNAc
# Method in brief: as §1
# [30] = biological target: Neu5Ac(a2-3)Gal(b1-4)GlcNAc(b1-3)Gal(b1-4)GlcNAc(b1-2)Man(a1-3)[Neu5Ac(a2-3)Gal(b1-4)GlcNAc(b1-3)Gal(b1-4)GlcNAc(b1-2)Man(a1-6)]Man(b1-4)GlcNAc(b1-4)GlcNAc
# Method in brief: as §1
# [31] = biological target: Neu5Ac(a2-3)Gal(b1-4)GlcNAc(b1-3)Gal(b1-4)GlcNAc(b1-3)Gal(b1-4)GlcNAc
# Method in brief: as §1
# [32] = biological target: Neu5Ac(a2-3)Gal(b1-4)GlcNAc(b1-3)Gal(b1-4)GlcNAc(b1-3)Gal(b1-4)GlcNAc(b1-2)Man(a1-3)[Neu5Ac(a2-3)Gal(b1-4)GlcNAc(b1-3)Gal(b1-4)GlcNAc(b1-3)Gal(b1-4)GlcNAc(b1-2)Man(a1-6)]GalNAc
# Method in brief: as §1
# [33] = biological target: Neu5Ac(a2-3)Gal(b1-4)GlcNAc(b1-3)Gal(b1-4)GlcNAc(b1-3)GalNAc
# Method in brief: as §1
# [34] = biological target: Neu5Ac(a2-3)Gal(b1-4)GlcNAc(b1-3)Gal(b1-4)GlcNAc(b1-3)[Neu5Ac(a2-3)Gal(b1-4)GlcNAc(b1-3)Gal(b1-4)GlcNAc(b1-6)]GalNAc
# Method in brief: as §1
# [35] = biological target: Neu5Ac(a2-3)Gal(b1-4)GlcNAc(b1-3)Gal(b1-4)GlcNAc(b1-6)[Gal(b1-3)]GalNAc
# Method in brief: as §1
# [36] = biological target: Neu5Ac(a2-3)Gal(b1-4)GlcNAc(b1-3)Gal(b1-4)[Fuc(a1-3)]GlcNAc
# Method in brief: as §1
binder,measurement,setting,value
"CRT-1 (Homo sapiens), P27797 (protein) MLLSVPLLLGLLGLAVAEPAVYFKEQFLDGDGWTSRWIESKHKSDFGKFVLSSGKFYGDEEKDKGLQTSQDARFYALSASFEPFSNKGQTLVVQFTVKHEQNIDCGGGYVKLFPNSLDQTDMHGDSEYNIMFGPDICGPGTKKVHVIFNYKGKNVLINKDIRCKDDEFTHLYTLIVRPDNTYEVKIDNSQVESGSLEDDWDFLPPKKIKDPDASKPEDWDERAKIDDPTDSKPEDWDKPEHIPDPDAKKPEDWDEEMDGEWEPPVIQNPEYKGEWKPRQIDNPDYKGTWIHPEIDNPEYSPDPSIYAYDNFGVLGLDLWQVKSGTIFDNFLITNDEAYAEEFGNETWGVTKAAEKQMKDKQDEEQRLKEEEEDKKRKEEEEAEDKEDDEDKDEDEEDEEDKEEDEEEDVPGQAKDEL",glycan array binding signal (z-score),[1],-0.77
same,glycan array binding signal (z-score),[2],-0.396
same,glycan array binding signal (z-score),[3],-0.776
same,glycan array binding signal (z-score),[4],-0.783
same,glycan array binding signal (z-score),[5],0.481
same,glycan array binding signal (z-score),[6],-1.66
same,glycan array binding signal (z-score),[7],0.522
same,glycan array binding signal (z-score),[8],0.25
same,glycan array binding signal (z-score),[9],-0.036
same,glycan array binding signal (z-score),[10],-0.707
same,glycan array binding signal (z-score),[11],0.492
same,glycan array binding signal (z-score),[12],-0.093
same,glycan array binding signal (z-score),[13],-0.29
same,glycan array binding signal (z-score),[14],0.236
same,glycan array binding signal (z-score),[15],-0.346
same,glycan array binding signal (z-score),[16],-0.786
same,glycan array binding signal (z-score),Neu5Ac(a2-3)Gal(b1-4)Glc,-0.013
same,glycan array binding signal (z-score),[17],-0.166
same,glycan array binding signal (z-score),[18],0.609
same,glycan array binding signal (z-score),[19],-0.229
same,glycan array binding signal (z-score),[20],0.286
same,glycan array binding signal (z-score),[21],-0.33
same,glycan array binding signal (z-score),[22],-0.033
same,glycan array binding signal (z-score),[23],0.276
same,glycan array binding signal (z-score),[24],0.301
same,glycan array binding signal (z-score),[25],-0.443
same,glycan array binding signal (z-score),[26],1.45
same,glycan array binding signal (z-score),[27],-0.453
same,glycan array binding signal (z-score),[28],-0.237
same,glycan array binding signal (z-score),[29],0.447
same,glycan array binding signal (z-score),[30],0.369
same,glycan array binding signal (z-score),[31],-0.009
same,glycan array binding signal (z-score),[32],1.2
same,glycan array binding signal (z-score),[33],-0.225
same,glycan array binding signal (z-score),[34],0.809
same,glycan array binding signal (z-score),[35],-0.474
same,glycan array binding signal (z-score),[36],-0.593

# As a working copy, some entries already given.
binder,measurement,setting,value
"CRT-1 (Homo sapiens), P27797 (protein) MLLSVPLLLGLLGLAVAEPAVYFKEQFLDGDGWTSRWIESKHKSDFGKFVLSSGKFYGDEEKDKGLQTSQDARFYALSASFEPFSNKGQTLVVQFTVKHEQNIDCGGGYVKLFPNSLDQTDMHGDSEYNIMFGPDICGPGTKKVHVIFNYKGKNVLINKDIRCKDDEFTHLYTLIVRPDNTYEVKIDNSQVESGSLEDDWDFLPPKKIKDPDASKPEDWDERAKIDDPTDSKPEDWDKPEHIPDPDAKKPEDWDEEMDGEWEPPVIQNPEYKGEWKPRQIDNPDYKGTWIHPEIDNPEYSPDPSIYAYDNFGVLGLDLWQVKSGTIFDNFLITNDEAYAEEFGNETWGVTKAAEKQMKDKQDEEQRLKEEEEDKKRKEEEEAEDKEDDEDKDEDEEDEEDKEEDEEEDVPGQAKDEL",glycan array binding signal (z-score),[19],-0.229
same,glycan array binding signal (z-score),[20],0.286
same,glycan array binding signal (z-score),[21],-0.33
same,glycan array binding signal (z-score),[22],-0.033
same,glycan array binding signal (z-score),[23],0.276
same,glycan array binding signal (z-score),[24],0.301
same,glycan array binding signal (z-score),[25],-0.443
same,glycan array binding signal (z-score),[26],1.45
same,glycan array binding signal (z-score),[27],-0.453
same,glycan array binding signal (z-score),[28],-0.237
